Measurements reported in PubChem BioAssay AID743121 (NCATS, 2013)

- Aim: 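Genes whose silencing strengthens cell killing by camptothecin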 (primary screen)
- Cell system: MDA-MB-231 cells, a human breast cancer line
- Reagent: single siRNA against human genes, 20 nM siRNA (0.8 pmol per well)
- Duration: 120 h (drug added 48 h after transfection, read 72 h later)
- Conditions: camptothecin 20 nM (about EC30) for 72 h; vehicle 0.1% DMSO in parallel plates
- Detection: 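CellTiter-Glo ATP signal, scaled to control siRNA as percent viability; sensitisation given as log2 of untreated divided by camptothecin-treated viability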
- Direction: log2 vehicle/camptothecin viability: higher = stronger sensitisation to camptothecin; viability with camptothecin: higher = more viable cells
- Rule for the call: 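Active genes have an RSA gene-level p-value below 0.001, computed from the ratios of their separate siRNAs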
Shown is one part, drawn at random, of about 26,000 reagents tested. 167 of them (0.63%) count as active. 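Calls are per gene from RSA p-values that are not deposited; an individual active-marked siRNA can sensitise only weakly.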 Reagents against one gene are numbered here. Further read-outs or replicates are left out here.

gene symbol | siRNA no. | log2 vehicle/camptothecin viability | viability with camptothecin (% of control) | Outcome
SLC6A9 | 1 | -0.361 | 90 | inactive
SLC6A9 | 2 | -0.171 | 41.3 | inactive
SLC6A9 | 3 | 0.332 | 48.7 | inactive
SLC6A9 | 4 | 0.23 | 24.8 | inactive
SIRPD | 1 | -0.513 | 57.7 | inactive
SIRPD | 2 | -0.104 | 35.1 | inactive
SIRPD | 3 | -0.503 | 72.4 | inactive
SIRPD | 4 | -0.164 | 87.7 | inactive
PKMYT1 | 1 | 0.337 | 41 | inactive
PKMYT1 | 2 | -0.0781 | 65.7 | inactive
PKMYT1 | 3 | 1.27 | 19.5 | inactive
PKMYT1 | 4 | -0.68 | 89 | inactive
PBX1 | 1 | 0.16 | 84.2 | inactive
PBX1 | 2 | -0.104 | 103 | inactive
PBX1 | 3 | -0.26 | 63.6 | inactive
LRRC4 | 1 | -0.0172 | 65.6 | inactive
LRRC4 | 2 | -0.323 | 103 | inactive
LRRC4 | 3 | 0.282 | 51.6 | inactive
ARIH2 | 1 | 0.095 | 84.8 | inactive
ARIH2 | 2 | -0.294 | 63 | inactive
ARIH2 | 3 | 0.329 | 39.6 | inactive
ARIH2 | 4 | -0.0693 | 84.1 | inactive
TNR | 1 | 0.0536 | 103 | inactive
TNR | 2 | -0.000128 | 98.5 | inactive
TNR | 3 | -0.549 | 9.5 | inactive
TNR | 4 | 0.264 | 24 | inactive
FGF5 | 1 | -0.537 | 39.4 | inactive
FGF5 | 2 | -0.314 | 70.1 | inactive
FGF5 | 3 | -0.097 | 105 | inactive
FGF5 | 4 | -0.13 | 115 | inactive
ATP5F1B | 1 | -0.234 | 55.1 | inactive
ATP5F1B | 2 | -0.147 | 64.9 | inactive
ATP5F1B | 3 | -0.152 | 104 | inactive
ATP5F1B | 4 | -0.258 | 97.5 | inactive
GRB10 | 1 | -0.163 | 85.3 | inactive
GRB10 | 2 | -0.0106 | 97.7 | inactive
GRB10 | 3 | -0.27 | 71.5 | inactive
GRB10 | 4 | 0.223 | 66.5 | inactive
KLK12 | 1 | -0.239 | 65.2 | inactive
KLK12 | 2 | 0.0935 | 63.2 | inactive
KLK12 | 3 | -0.229 | 44.8 | inactive
KLK12 | 4 | 0.183 | 64.1 | inactive
PMPCA | 1 | 0.277 | 78.6 | inactive
PMPCA | 2 | -0.087 | 99.4 | inactive
PMPCA | 3 | -0.395 | 87.8 | inactive
PMPCA | 4 | -0.326 | 91.1 | inactive
SS18 | 1 | -0.0462 | 42.4 | inactive
SS18 | 2 | -0.0299 | 96.4 | inactive
SS18 | 3 | -0.0254 | 81.6 | inactive
SS18 | 4 | 0.238 | 69.2 | inactive
C3 | 1 | -0.392 | 98.8 | inactive
C3 | 2 | -0.499 | 66.3 | inactive
C3 | 3 | -0.311 | 92.2 | inactive
GGA1 | 1 | -0.134 | 46.8 | inactive
GGA1 | 2 | -0.178 | 60.7 | inactive
GGA1 | 3 | 0.0925 | 96.7 | inactive
GGA1 | 4 | -0.146 | 49.9 | inactive
GGA1 | 5 | -0.136 | 83.1 | inactive
GGA1 | 6 | -0.44 | 64.7 | inactive
GGA1 | 7 | -0.533 | 94.5 | inactive
GGA1 | 8 | 0.245 | 32.7 | inactive
PPFIA4 | 1 | -0.294 | 91.7 | inactive
PPFIA4 | 2 | -0.328 | 84 | inactive
PPFIA4 | 3 | 0.0784 | 51.5 | inactive
PPFIA4 | 4 | -0.678 | 54.3 | inactive
SPAST | 1 | 0.00846 | 91.7 | inactive
SPAST | 2 | -0.243 | 66.4 | inactive
SPAST | 3 | -0.335 | 107 | inactive
SPAST | 4 | 0.453 | 43 | inactive
GPR4 | 1 | 0.02 | 62.1 | inactive
GPR4 | 2 | 0.135 | 23.1 | inactive
GPR4 | 3 | 0.214 | 78 | inactive
GPR4 | 4 | -0.0716 | 75.9 | inactive
CACHD1 | 1 | 0.531 | 57.1 | inactive
CACHD1 | 2 | -0.426 | 86.8 | inactive
CACHD1 | 3 | -0.242 | 72.2 | inactive
CACHD1 | 4 | -0.311 | 100 | inactive
FLOT2 | 1 | -0.227 | 75 | inactive
FLOT2 | 2 | 0.0431 | 87.8 | inactive
FLOT2 | 3 | 0.238 | 55.2 | inactive
CDH11 | 1 | -0.347 | 89.6 | inactive
CDH11 | 2 | -0.247 | 114 | inactive
CDH11 | 3 | 0.0897 | 54.9 | inactive
CDH11 | 4 | -0.171 | 104 | inactive
RAB18 | 1 | -0.213 | 120 | inactive
RAB18 | 2 | -0.149 | 101 | inactive
RAB18 | 3 | 0.33 | 79.5 | inactive

An excerpt from above, showing only “viability with camptothecin (% of control)”.
ARIH2 #3 = 39.6
ARIH2 #4 = 84.1
TNR #1 = 103
TNR #2 = 98.5
TNR #3 = 9.5
TNR #4 = 24
FGF5 #1 = 39.4
FGF5 #2 = 70.1
FGF5 #3 = 105
FGF5 #4 = 115
